In article PMC5520925:
These are yes or no findings as the source states them, for the method shown. Binding seen in cells or lysates may run through a third protein. For part of these data: Binding can be weak; no strength is given.

By UniProt entry, the sequences of proteins in these tests, tags left out.
UniProt Q12834: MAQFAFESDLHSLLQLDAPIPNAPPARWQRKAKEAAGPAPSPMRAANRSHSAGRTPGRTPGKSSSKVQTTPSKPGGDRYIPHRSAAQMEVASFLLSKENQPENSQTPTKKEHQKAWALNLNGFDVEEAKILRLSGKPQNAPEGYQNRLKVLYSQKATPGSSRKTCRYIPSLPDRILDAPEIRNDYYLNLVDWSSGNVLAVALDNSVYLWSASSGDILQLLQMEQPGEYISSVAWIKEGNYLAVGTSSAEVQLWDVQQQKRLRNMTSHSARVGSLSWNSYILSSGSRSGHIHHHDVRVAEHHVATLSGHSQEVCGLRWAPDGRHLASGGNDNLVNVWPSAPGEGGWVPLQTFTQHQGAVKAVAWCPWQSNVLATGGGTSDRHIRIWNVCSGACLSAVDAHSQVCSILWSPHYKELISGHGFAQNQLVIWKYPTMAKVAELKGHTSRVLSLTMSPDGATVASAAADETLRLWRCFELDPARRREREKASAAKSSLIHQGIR

Assays:
[1] = molecular target: T1, SMAR1, endogenous (human (endogenous in MCF7)) (UniProt Q8N9N5); test: co-IP; endogenous proteins; MCF7 cell extracts immunoprecipitated with SMAR1 antibody or IgG, immunoblot; un-irradiated cells; also irradiated cells with ATM inhibitor KU55933 (interaction restored); IP buffer 50 mM Tris pH 7.4, 200 mM NaCl, 0.1% Triton X-100, 4 C
T1 sequence: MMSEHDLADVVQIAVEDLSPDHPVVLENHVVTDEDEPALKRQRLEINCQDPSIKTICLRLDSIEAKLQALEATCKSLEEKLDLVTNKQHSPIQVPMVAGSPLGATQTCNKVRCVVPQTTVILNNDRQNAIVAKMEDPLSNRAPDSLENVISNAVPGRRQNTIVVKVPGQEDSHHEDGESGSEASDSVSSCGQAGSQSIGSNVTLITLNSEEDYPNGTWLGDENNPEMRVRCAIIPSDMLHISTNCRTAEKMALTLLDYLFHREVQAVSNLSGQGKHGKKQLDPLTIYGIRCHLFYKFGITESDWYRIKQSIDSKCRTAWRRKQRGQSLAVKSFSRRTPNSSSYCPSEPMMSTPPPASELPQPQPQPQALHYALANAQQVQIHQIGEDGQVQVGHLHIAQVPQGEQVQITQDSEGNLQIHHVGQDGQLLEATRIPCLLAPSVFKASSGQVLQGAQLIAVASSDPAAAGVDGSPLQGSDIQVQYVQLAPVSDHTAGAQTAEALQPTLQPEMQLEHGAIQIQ

[2] = molecular target: FLAG-SMAR1-D1 (mutant of the first D-box, 40-43aa) (UniProt Q8N9N5); test: co-IP; MCF7 cells co-transfected with HA-Cdc20 and FLAG-SMAR1 (WT, D1 or D2); in Figure 2c treated with 10 uM MG132 for 6 h; whole cell extracts immunoprecipitated with anti-FLAG (or reciprocally), immunoblot; IP buffer 50 mM Tris pH 7.4, 200 mM NaCl, 0.1% Triton X-100, 4 C
[3] = molecular target: FLAG-SMAR1-D2 (mutant of the second D-box, 290-293aa) (UniProt Q8N9N5); test: as above

| Substance | binding [1] | binding [2] | binding [3] |
| --- | --- | --- | --- |
| JNK, endogenous (human (endogenous in MCF7)) (enzyme) | binds |  |  |
| HA-Cdc20 (cell division cycle 20 homolog) (from UniProt Q12834 1-499) |  | no binding | no binding |
